# Test results as given in PubChem BioAssay AID1259415 (National Center for Advancing Translational Sciences (NCATS), 2018).
# The campaign covered roughly 410,000 compounds. About 18,000 (4.4%) were called active. The shares of active, inactive and inconclusive entries below differ from those in the screen. No stated cut-off is given here; in the data, active means activity change below about -60%; inconclusive means no clear call, values can overlap the other calls; inactive means above about -39%. Where a structure was tested more than once in an assay, its records may differ in their call.
# Experiment: qHTS Assay for inhibitors of the human cytomegalovirus (HCMV)
# Conditions: HFF cells, HCMV-luciferase reporter, 72 h; at 57.5 µM; hits give low values
# How it was run: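 Two compound doses tested in HFFs infected with HCMV-luciferase, MOI 1 PFU/cell, 72 h at 37C. Lysate luminescence read with OneGlo; data normalized against buffer-only and 10uM Salinomycin inhibitor controls.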
# On the % scale 0 is the no-effect control and ±100 the full control effect.
row,SMILES,"activity change, negative = inhibition"
1,CC1=C(C(=O)Nc2ccc(Cl)cc2)C2(CCCCC2)C(C(N)=O)C(=S)N1 (configuration not stated),inconclusive: -51.3%
2,Cc1ccccc1C1=NC(C(F)(F)F)(C(F)(F)F)c2c(n(C)c(=O)n(C)c2=O)N1,inconclusive: -48.2%
3,O=C(CN1C(=O)/C(=C/c2ccccc2)SC1=S)NNC(=O)c1ccccc1O,inconclusive: -44.4%
4,COc1ccc(-c2[nH]ncc2C(=O)NCc2ccccc2OC)cc1,inconclusive: -42.8%
5,Cc1cc(C)c(NC(=O)CCc2c(C)noc2C)c(C)c1,inconclusive: -40.8%
6,NS(=O)(=O)c1ccc(NC(=S)N2CCN(Cc3ccc(Cl)c(Cl)c3)CC2)cc1,inconclusive: -46%
7,O=C(NCc1cccnc1)c1ccc(S(=O)(=O)N2CCCCCC2)cc1,inconclusive: -42%
8,COc1ccc(-c2nn(-c3ccccc3)cc2/C=C\C(=O)N2CCOCC2)cc1[N+](=O)[O-],inconclusive: -45.2%
9,CC(C(=O)Nc1ccc2c(c1)OCO2)N1CCC(N2CCCCC2)CC1 (configuration not stated),inconclusive: -54.2%
10,CCCCN1C[C@H](C)[C@@H](CC(=O)NC)C1=O,inactive: -0.512%
11,CCc1ccc(CNC(=O)CCc2cn(C)c3ccccc23)cc1,inactive: -11%
12,COc1ccc(NC(=O)CSc2nnnn2Cc2ccccc2)cc1,inactive: -30.7%
13,CC(C)c1c(C(=O)N/N=C2\CCc3ccccc32)nnn1-c1nonc1N,inconclusive: -42.4%
14,CCN(CCCNC(=O)c1cc2c(=O)[nH]c3ccc(C)cc3c2s1)Cc1ccccc1,active: -106%
15,CC(=O)NNC(=O)CN1C(=O)/C(=C/c2ccccc2)SC1=S,inconclusive: -40.5%
16,C[C@H]1CN([C@@H](C)CO)C(=O)CCCn2nncc2CO[C@H]1CN(C)C(=O)Cc1ccccc1,inactive: 1.51%
17,O=c1cc(C(Cl)(Cl)Cl)oc2c1ccc1ccccc12,active: -105%
18,COc1cccc(/C=N/NC(=O)CN2CC(c3ccccc3)CC2=O)c1OC (configuration not stated),inconclusive: -49.5%
19,COc1ccc2cc(S(=O)(=O)NCc3cccnc3)ccc2c1,inconclusive: -51.5%
20,Cc1cc(NC(=O)CSCC(=O)Nc2cc(C(F)(F)F)ccc2N2CCCC2)no1,inconclusive: -47.1%
21,O=S(=O)(O)c1cc(O)c(N=Nc2ccc(O)cc2O)c2ccccc12,inconclusive: -50.8%
22,COc1ccc(C(C#N)N2CCC(c3ccccc3)=N2)cc1OC (configuration not stated),inconclusive: -46.3%

# Copied from the list:
# activity change, negative = inhibition with COc1ccc(-c2nn(-c3ccccc3)cc2/C=C\C(=O)N2CCOCC2)cc1[N+](=O)[O-] reads inconclusive: -45.2%
# activity change, negative = inhibition with CCN(CCCNC(=O)c1cc2c(=O)[nH]c3ccc(C)cc3c2s1)Cc1ccccc1 reads active: -106%
# activity change, negative = inhibition with CC(=O)NNC(=O)CN1C(=O)/C(=C/c2ccccc2)SC1=S reads inconclusive: -40.5%
# activity change, negative = inhibition with O=C(NCc1cccnc1)c1ccc(S(=O)(=O)N2CCCCCC2)cc1 reads inconclusive: -42%

# The list continues.

row,SMILES,"activity change, negative = inhibition"
1,Cc1ccc(C)c(NC(=O)Cn2c(=O)oc3cc(S(=O)(=O)NCc4ccccc4)ccc32)c1,inactive: -4.83%
2,COc1ccc(Cl)cc1NC(=O)c1nc(S(C)(=O)=O)ncc1N(Cc1ccc(C)cc1)Cc1ccco1,inconclusive: -54.4%
3,CCOC(=O)CCCCC(=O)c1[nH]c(=O)[nH]c1CSc1nc(C)cc(=O)[nH]1,inconclusive: -53.4%
4,O=C(Cc1cccs1)N1CCC(c2nc3c(nnn3Cc3ccccc3)c(=O)[nH]2)CC1,inconclusive: -52.5%
5,Fc1cccc(CSc2ccc(-c3ccc4c(c3)OCO4)nn2)c1,inconclusive: -52.9%
6,Cc1ccc(OC(C)C(=O)NCC2(N3CCOCC3)CCCCC2)cc1C (configuration not stated),inactive: 105%
7,COc1ccc(S(=O)(=O)N2CCCCC2)cc1NC(=O)CSc1ncnc2ccccc12,inactive: -18.5%
8,O=C(O)c1ccnc(C(=O)O)c1,inactive: 14.7%
9,COc1cccc(N2CCN(c3ncc4c(n3)CCN(Cc3ccc(Br)cc3)C4)CC2)c1,inconclusive: -50.7%
10,Cc1ccc(-n2c(-c3ccco3)n[nH]c2=S)cc1,inactive: -13.6%
11,Cc1ccc(-c2noc(CSc3nnc(Cc4ccccc4)n3-c3ccc(Cl)cc3)n2)cc1,inactive: -11.6%
12,COc1ccc(NC(=S)N(CCN2CCOCC2)C2CCN(C(C)=O)CC2)cc1Cl,inconclusive: -48.3%
13,O=C(NNS(=O)(=O)c1ccccc1F)c1sccc1-n1cccc1,inconclusive: -47.6%
14,O=C(Nc1ccccc1C(=O)N1CCCCCC1)c1ccc(Cl)cc1,inconclusive: -46.3%
15,CCOC(=O)C1=C(C)NC(=O)NC1,inconclusive: -46.3%
16,Cc1ccc(NC(=O)CN(C)C(=O)c2cccnc2Nc2cccc(C(F)(F)F)c2)cc1,active: -60.1%
17,Cc1cc(/C=N/N2CCN(C)CC2)c(C)n1-c1ccccc1F,inconclusive: -58.4%
18,O=C(CCCO)N/N=C/c1ccccc1[N+](=O)[O-],inconclusive: -46.2%
19,CSc1nccc(N2CCN(c3ccc(F)cc3)CC2)n1,inconclusive: -52.3%
20,Cc1ccc(OCC(=O)Nc2ccc3c(c2)OCCO3)cc1C,active: -63.1%
21,CCn1cc(CN2CCCC(C(=O)c3ccc(-c4ccccc4)cc3)C2)cn1 (configuration not stated),active: -61%
22,COc1ccc(CNC(=O)[C@H](C)N2C(=O)N3CCc4c([nH]c5ccccc45)[C@@]3(C)C2=O)cc1OC,inconclusive: -45.2%

row,SMILES,"activity change, negative = inhibition"
1,Cc1ccc(S(=O)(=O)NCC(c2ccco2)N2CCN(c3ccccc3F)CC2)cc1 (configuration not stated),inconclusive: -56.4%
2,CCOc1ccc(/C=N/n2c(-c3ccccc3)n[nH]c2=S)cc1,inconclusive: -53.5%
3,COc1ccc(OC)c(-c2csc(NC(=O)CSCc3c(C)noc3C)n2)c1,inactive: -39.2%
4,N#CC1=C(N)Oc2ccc3ccc(O)cc3c2C1c1ccsc1 (configuration not stated),inconclusive: -57.6%
5,Cc1oc(C(C)(C)C)cc1-c1cc(NC(=O)c2ccc([N+](=O)[O-])cc2)n[nH]1,inactive: -12.5%
6,Cc1c(C(=O)OCC(=O)N(C)C2CCS(=O)(=O)C2)oc2ccc(Br)cc12 (configuration not stated),inactive: -31.9%
7,CC12CCC(C(=O)Nc3ccc4c(c3)OCCO4)(OC1=O)C2(C)C (configuration not stated),inactive: -0.69%
8,CC(C)CCNC(=O)c1cccc(-n2cnc3cccnc32)c1,inconclusive: 0%
9,COC(=O)Cc1c(C)[nH]n(-c2cc(Cl)cc(Cl)c2)c1=O,inactive: -14.9%
10,Cc1ccc(C)c(OCC(=O)Nc2nc3ccc([N+](=O)[O-])cc3s2)c1C,active: -65.5%
11,COC(=O)C1=C(C)N=c2s/c(=C/c3cccs3)c(=O)n2C1c1ccc(F)cc1 (configuration not stated),inconclusive: -51.8%
12,O=C1NCCC/C1=N/Nc1cc(F)ccc1F,inactive: -23.8%
13,CC(=O)Nc1cccc(Oc2ncnc3scc(-c4ccccc4)c23)c1,inconclusive: -44.3%
14,CN(CC(=O)Nc1cc(S(=O)(=O)N2CCCC2)ccc1Cl)Cc1ccc2c(c1)OCO2,inconclusive: -58.8%
15,COc1ccc(OC)c(C(=O)/C=C/c2cccnc2)c1,active: -100%
16,Cc1ccc(NC(=O)COC(=O)C2COc3ccccc3O2)cc1 (configuration not stated),inactive: 8.79%
17,O=C(O)c1ccc(CNC(=O)c2ccccc2NC(=O)c2ccc([N+](=O)[O-])cc2)cc1,inconclusive: -40%
18,COc1ccc(/C=C/C(=O)c2ccc([N+](=O)[O-])o2)cc1OC,active: -104%
19,O=C(CCc1ccccc1)OCC(=O)c1ccc([N+](=O)[O-])cc1,inconclusive: -49.5%
20,O=C(C[C@H]1CC[C@@H]2[C@H](COC[C@H](O)CN2Cc2cccc(F)c2)O1)NCc1cccc(F)c1,inactive: 9.3%
21,CCOc1ccc(NCc2cccn2-c2nnc(N3CCC(C(=O)NCc4ccc(C)cc4)CC3)s2)cc1,active: -75.6%
22,CN(C)C(=O)CNc1n[nH]c(=S)[nH]c1=O,inactive: -7.75%

row,SMILES,"activity change, negative = inhibition"
1,O=S(=O)(c1ccc(Cl)cc1)N1Cc2cc(Br)ccc2-n2nncc2C1,inconclusive: -42.9%
2,CC(C)Oc1ccc(C(=O)Nc2ccc(N(C)C)cc2)cc1,inconclusive: -47.6%
3,CC1=C(C(=O)N(C(C)C)C(C)C)CC(CC(=O)NCc2ccco2)C(=O)N1CCC1=CCCCC1 (configuration not stated),inconclusive: -43.1%
4,Cc1nn(CCC(=O)NCc2ccc(N(C)C)cc2)c(=O)c2nn(-c3ccccc3)c(C)c12,active: -62.7%
5,Cc1cc(Cl)cc(Cl)c1OCCOCCN(C)C,inconclusive: -46.5%
6,NC(=O)c1ccc(NC(=O)COC(=O)CCC2CCCC2)cc1,inactive: 50.8%
7,O=C(NC1=NCCS1)C1COc2ccccc2O1 (configuration not stated),inconclusive: -49.2%
8,COc1ccccc1CNC(=O)CN(C)CC(=O)Nc1ccccc1Br,inconclusive: -41.1%
9,CCCN(Cc1nc2cc(Cl)ccc2c(=O)[nH]1)C(=O)c1ccc(S(=O)(=O)N2CCCC2)cc1,inconclusive: 0%
10,Cc1ccc(NC(=O)COC(=O)Cc2ccsc2)c(C)c1,inactive: -22.8%
11,O=C(COc1ccccc1)NNc1c2ccccc2nc2ccccc12,active: -92.3%
12,COc1ccc(CCNC(=O)CCCn2c(=S)[nH]c3ccsc3c2=O)cc1OC,inconclusive: -53.1%
13,CN(C)c1cccc(C(=O)n2cc(C(=O)c3cc(F)ccc3O)cn2)c1,inactive: 34.2%
14,N#Cc1nc(-c2cccs2)oc1NCc1ccccc1Cl,inactive: -23.1%
15,CS(=O)(=O)N1CCN(c2ccc(NC(=O)c3ccc([N+](=O)[O-])o3)cc2)CC1,active: -101%
16,O=C(NC1CCCCC1)c1ccc2c(c1)S(=O)(=O)c1ccccc1C2=O,inactive: -4.63%
17,CCCCCNS(=O)(=O)c1ccc(N2CCCCS2(=O)=O)cc1,inconclusive: -42.5%
18,CC(C)c1ccc(NC2CCCN(C(=O)c3ccc(Cn4cnnn4)cc3)C2)cc1 (configuration not stated),inconclusive: -53.3%
19,CC(=O)N/N=C\c1ccccc1OC/C=C/c1ccccc1,inconclusive: -44.4%
20,Fc1ccc(COc2ccccc2CNCc2ccncc2)cc1,inconclusive: -47%
21,Cc1cccc(C)c1OCc1cc(C(=O)N(Cc2c(C)nn(C)c2C)C2CC2)no1,inactive: 0%
